Reference: the supplement of paper PMC10849652
Some of the results follow.

The chains behind the UniProt entries cited, without tags or fusion partners. Where a name states a change or a piece, a line headed by the entry shows the natural chain unless it says otherwise.
UniProt P0C2W7: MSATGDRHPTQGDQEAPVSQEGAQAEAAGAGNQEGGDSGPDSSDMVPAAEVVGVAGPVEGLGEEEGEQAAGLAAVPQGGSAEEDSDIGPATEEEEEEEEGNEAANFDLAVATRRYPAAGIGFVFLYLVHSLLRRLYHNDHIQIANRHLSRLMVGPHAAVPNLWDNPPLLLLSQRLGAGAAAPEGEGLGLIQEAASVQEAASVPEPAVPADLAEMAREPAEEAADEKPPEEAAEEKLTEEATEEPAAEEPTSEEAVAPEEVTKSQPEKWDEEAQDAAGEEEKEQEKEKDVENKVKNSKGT
UniProt Q9HCP0: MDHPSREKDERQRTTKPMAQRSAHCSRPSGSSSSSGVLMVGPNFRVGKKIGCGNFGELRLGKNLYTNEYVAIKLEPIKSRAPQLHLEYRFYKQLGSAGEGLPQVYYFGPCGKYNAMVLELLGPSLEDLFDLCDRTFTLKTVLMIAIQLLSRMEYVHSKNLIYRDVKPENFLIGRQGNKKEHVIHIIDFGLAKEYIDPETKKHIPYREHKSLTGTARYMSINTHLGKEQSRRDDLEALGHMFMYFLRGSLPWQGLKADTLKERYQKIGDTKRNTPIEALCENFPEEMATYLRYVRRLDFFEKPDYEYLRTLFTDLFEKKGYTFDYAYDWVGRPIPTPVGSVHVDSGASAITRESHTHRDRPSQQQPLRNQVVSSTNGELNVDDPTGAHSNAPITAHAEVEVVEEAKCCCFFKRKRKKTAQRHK
UniProt P43155: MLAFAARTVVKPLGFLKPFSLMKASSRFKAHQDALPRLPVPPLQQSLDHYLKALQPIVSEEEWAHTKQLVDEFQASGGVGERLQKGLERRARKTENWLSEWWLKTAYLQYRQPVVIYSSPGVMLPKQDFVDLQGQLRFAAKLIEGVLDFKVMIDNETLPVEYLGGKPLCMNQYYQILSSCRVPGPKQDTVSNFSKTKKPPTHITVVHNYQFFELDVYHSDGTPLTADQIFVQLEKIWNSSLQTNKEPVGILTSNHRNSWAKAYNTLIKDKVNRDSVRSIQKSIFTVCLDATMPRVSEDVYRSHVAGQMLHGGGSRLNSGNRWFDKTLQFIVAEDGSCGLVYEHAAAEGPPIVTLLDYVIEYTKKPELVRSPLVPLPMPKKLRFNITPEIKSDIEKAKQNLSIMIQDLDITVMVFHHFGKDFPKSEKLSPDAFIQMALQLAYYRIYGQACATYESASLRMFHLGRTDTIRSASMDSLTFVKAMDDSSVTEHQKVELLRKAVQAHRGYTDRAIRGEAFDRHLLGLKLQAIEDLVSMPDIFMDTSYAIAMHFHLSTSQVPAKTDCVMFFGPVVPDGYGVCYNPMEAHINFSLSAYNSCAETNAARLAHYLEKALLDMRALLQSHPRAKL
UniProt P01036: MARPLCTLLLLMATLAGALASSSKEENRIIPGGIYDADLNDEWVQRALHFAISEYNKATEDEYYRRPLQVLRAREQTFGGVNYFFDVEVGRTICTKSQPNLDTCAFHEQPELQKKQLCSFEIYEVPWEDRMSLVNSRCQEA
UniProt Q8NBI2: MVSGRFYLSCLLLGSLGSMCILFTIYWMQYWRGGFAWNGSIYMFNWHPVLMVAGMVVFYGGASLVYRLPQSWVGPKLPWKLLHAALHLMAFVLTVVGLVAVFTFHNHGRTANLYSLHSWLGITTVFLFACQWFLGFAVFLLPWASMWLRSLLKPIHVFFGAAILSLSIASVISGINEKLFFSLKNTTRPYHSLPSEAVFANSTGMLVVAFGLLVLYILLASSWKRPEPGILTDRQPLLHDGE
UniProt Q86T23: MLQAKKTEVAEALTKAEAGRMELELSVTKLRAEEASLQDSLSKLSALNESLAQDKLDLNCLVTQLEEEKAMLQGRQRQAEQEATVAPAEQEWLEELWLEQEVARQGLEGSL
UniProt P48729: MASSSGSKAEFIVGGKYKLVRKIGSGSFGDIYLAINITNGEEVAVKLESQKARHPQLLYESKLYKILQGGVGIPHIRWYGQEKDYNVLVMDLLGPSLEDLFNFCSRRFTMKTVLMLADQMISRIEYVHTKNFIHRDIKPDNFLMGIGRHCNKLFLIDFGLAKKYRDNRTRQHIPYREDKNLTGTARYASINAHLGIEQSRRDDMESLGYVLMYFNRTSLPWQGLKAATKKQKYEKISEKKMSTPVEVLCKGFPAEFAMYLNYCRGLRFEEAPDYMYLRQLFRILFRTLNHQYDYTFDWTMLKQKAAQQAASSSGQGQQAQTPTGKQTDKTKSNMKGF
UniProt Q9UKG9: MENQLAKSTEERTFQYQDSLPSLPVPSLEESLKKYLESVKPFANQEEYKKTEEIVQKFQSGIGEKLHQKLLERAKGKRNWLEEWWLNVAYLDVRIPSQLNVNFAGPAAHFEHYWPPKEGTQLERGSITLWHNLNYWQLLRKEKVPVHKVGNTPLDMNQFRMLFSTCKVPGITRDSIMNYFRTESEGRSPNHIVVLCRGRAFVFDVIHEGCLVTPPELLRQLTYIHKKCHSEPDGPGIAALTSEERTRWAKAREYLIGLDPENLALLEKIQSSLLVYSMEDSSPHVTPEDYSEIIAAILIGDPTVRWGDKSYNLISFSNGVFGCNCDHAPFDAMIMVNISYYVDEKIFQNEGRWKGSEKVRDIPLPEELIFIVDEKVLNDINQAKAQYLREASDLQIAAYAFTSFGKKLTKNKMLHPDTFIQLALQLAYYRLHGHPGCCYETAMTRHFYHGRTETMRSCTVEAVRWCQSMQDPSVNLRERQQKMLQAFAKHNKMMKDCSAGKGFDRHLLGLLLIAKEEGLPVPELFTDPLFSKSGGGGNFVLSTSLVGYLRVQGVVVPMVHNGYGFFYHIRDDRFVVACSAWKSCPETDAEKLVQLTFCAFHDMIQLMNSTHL
UniProt Q2NKJ3: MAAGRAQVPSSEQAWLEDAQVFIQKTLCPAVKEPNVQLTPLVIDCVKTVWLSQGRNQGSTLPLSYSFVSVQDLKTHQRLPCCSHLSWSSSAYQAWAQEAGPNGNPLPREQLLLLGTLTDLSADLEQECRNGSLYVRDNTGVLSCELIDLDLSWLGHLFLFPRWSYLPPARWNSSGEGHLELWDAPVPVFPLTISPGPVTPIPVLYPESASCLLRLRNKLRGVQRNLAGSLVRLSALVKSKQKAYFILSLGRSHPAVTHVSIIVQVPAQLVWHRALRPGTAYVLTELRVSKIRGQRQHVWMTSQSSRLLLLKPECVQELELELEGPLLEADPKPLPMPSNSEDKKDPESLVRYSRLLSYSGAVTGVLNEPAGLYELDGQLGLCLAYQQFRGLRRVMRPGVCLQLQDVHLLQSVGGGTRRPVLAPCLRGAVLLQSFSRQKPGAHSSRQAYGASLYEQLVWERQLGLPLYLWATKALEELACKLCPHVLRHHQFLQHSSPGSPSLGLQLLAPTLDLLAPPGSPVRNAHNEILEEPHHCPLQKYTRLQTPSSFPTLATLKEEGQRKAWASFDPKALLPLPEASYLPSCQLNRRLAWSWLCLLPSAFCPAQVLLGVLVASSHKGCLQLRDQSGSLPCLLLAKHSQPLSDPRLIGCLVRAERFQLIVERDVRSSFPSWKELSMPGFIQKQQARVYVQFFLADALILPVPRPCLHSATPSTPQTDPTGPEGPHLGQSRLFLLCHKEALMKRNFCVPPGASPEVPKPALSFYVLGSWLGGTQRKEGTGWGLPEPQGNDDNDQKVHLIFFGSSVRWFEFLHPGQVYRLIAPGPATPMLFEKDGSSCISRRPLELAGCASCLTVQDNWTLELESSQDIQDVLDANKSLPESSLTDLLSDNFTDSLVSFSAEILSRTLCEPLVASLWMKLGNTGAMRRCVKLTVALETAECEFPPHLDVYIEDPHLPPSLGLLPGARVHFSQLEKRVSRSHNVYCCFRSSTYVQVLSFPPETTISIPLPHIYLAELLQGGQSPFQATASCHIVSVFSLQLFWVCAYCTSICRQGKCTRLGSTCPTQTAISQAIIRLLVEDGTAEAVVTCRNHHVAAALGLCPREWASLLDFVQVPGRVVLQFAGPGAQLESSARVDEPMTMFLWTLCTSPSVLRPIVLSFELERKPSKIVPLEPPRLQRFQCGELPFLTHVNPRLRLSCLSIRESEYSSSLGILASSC
UniProt Q9H175: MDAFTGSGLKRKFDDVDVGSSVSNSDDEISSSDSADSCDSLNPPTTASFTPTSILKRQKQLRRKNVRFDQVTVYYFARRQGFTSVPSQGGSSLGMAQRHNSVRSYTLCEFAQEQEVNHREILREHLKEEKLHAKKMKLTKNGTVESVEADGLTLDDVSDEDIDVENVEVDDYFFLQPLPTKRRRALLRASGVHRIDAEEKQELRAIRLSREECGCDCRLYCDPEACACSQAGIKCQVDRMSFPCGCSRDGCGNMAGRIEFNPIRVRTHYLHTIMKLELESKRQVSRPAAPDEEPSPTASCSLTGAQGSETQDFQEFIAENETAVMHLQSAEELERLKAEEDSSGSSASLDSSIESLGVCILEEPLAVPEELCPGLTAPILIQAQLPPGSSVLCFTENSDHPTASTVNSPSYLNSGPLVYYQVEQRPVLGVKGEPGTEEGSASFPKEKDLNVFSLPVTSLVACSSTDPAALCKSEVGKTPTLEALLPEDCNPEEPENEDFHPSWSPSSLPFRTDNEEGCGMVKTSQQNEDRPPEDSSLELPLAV
UniProt Q9GZU7: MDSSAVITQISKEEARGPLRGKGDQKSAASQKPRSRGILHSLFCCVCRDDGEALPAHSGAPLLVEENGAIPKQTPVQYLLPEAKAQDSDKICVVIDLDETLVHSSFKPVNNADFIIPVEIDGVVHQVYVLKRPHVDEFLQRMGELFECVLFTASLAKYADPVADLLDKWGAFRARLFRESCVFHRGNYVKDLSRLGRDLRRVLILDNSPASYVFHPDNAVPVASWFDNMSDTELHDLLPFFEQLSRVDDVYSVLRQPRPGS
UniProt Q6UUV7: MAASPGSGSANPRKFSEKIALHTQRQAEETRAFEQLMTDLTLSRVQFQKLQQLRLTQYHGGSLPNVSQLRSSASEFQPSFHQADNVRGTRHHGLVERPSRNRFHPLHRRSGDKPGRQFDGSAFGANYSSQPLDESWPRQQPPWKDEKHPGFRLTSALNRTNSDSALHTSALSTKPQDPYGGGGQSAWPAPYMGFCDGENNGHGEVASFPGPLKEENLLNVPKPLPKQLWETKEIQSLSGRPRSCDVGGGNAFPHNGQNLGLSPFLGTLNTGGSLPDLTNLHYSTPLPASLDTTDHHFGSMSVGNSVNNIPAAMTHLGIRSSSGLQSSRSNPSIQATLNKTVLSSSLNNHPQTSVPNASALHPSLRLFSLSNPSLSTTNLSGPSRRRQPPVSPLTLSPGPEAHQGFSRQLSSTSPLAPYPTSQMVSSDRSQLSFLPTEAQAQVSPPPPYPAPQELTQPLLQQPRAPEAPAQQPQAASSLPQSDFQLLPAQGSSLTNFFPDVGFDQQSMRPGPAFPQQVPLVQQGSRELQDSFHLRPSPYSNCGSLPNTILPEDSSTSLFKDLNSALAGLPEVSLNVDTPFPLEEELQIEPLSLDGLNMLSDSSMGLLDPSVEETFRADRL
UniProt Q9UBX1: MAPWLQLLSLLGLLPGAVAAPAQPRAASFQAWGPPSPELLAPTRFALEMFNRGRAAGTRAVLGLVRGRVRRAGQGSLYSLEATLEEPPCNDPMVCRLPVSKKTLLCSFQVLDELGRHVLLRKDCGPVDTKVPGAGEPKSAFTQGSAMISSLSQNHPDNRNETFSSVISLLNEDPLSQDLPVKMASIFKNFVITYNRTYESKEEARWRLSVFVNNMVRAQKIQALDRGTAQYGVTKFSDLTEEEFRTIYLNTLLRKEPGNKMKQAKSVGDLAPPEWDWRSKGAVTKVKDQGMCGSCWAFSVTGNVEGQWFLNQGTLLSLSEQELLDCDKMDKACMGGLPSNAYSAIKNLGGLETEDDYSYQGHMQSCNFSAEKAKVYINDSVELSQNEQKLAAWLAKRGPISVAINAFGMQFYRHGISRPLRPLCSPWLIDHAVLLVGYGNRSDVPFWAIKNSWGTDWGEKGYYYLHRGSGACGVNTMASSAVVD
UniProt P25774, whole entry, looked up: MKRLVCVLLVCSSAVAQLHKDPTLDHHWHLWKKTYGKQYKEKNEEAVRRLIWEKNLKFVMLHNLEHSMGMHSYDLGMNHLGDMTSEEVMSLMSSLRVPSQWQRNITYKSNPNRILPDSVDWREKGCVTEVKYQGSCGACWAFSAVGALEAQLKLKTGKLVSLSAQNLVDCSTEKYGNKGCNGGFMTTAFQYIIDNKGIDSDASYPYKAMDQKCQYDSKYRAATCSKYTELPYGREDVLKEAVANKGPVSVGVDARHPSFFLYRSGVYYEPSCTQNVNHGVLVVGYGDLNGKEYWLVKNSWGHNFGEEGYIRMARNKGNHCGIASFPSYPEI

Legend:
Test in all cases: log2 fold change, soluble protein after heating vs DMSO (PISA); higher = thermal stabilisation; K562 lysate, 10 uM; active = over 0.2 and 3.5 SD of the protein, either way, in both replicates (recomputed)
[1] = compound: CS(=O)(=O)CCNCc1ccc(-c2ccc3ncnc(Nc4ccc(OCc5cccc(F)c5)c(Cl)c4)c3c2)o1 [lapatinib]
How it was run: (§1)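 Thermal stability, expressed as log-two fold change relative to solvent controls, is given from duplicates. Crude K562 extract in PBS pH 7.4 with 1 mM MgCl2, at 1 mg/mL protein, was treated with 10 μM compound for 30 min and heated in aliquots for 3 min across 48°C-58°C. After pooling, adjustment to 0.5% NP-40 at 4°C and centrifugation at 21,000xg for 90 min, supernatant protein was measured by TMTpro 16plex LC-MS/MS with channel sums equalised.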

[2] = compound: CS(=O)(=O)N1CCN(Cc2cc3nc(-c4cccc5[nH]ncc45)nc(N4CCOCC4)c3s2)CC1 [pictilisib]
How it was run: as §1

[3] = compound: C[C@@H](Oc1cc(-c2cnn(C3CCNCC3)c2)cnc1N)c1c(Cl)ccc(F)c1Cl [crizotinib]
How it was run: as §1

[4] = compound: C[C@H](Nc1ncnc2nc[nH]c12)c1cc2cccc(Cl)c2c(=O)n1-c1ccccc1 [duvelisib]
How it was run: as §1

[5] = compound: Cc1cc(Nc2cc(N3CCN(C)CC3)nc(Sc3ccc(NC(=O)C4CC4)cc3)n2)n[nH]1 [tozasertib]
How it was run: as §1

[6] = compound: Cc1ccc(-n2nc(C(C)(C)C)cc2NC(=O)Nc2ccc(OCCN3CCOCC3)c3ccccc23)cc1 [doramapimod]
How it was run: as §1

[7] = compound: Cc1ccc(NC(=O)c2ccc(CN3CC[C@H](N(C)C)C3)c(C(F)(F)F)c2)cc1Nc1nccc(-c2cncnc2)n1 [bafetinib]
How it was run: as §1

[8] = compound: Cc1cn(-c2cc(NC(=O)c3ccc(C)c(Nc4nccc(-c5cccnc5)n4)c3)cc(C(F)(F)F)c2)cn1 [nilotinib]
How it was run: as §1

[9] = compound: Cc1nc(Nc2n[nH]c3c2CN(C(=O)N[C@H](CN(C)C)c2ccccc2)C3(C)C)c2sccc2n1
How it was run: as §1

[10] = compound: Cc1nc(Nc2ncc(C(=O)Nc3c(C)cccc3Cl)s2)cc(N2CCN(CCO)CC2)n1 [dasatinib]
How it was run: as §1

[11] = compound: Cc1ncc(-c2ccnc(Nc3ccc(S(C)(=O)=O)cc3)n2)n1C(C)C
How it was run: as §1

[12] = compound: Cn1cc(-c2ccc3c(c2)CCN3C(=O)Cc2cccc(C(F)(F)F)c2)c2c(N)ncnc21
How it was run: as §1

[13] = compound: Cn1cc(CNCC2CCN(c3ncc(C(=O)NO)cn3)CC2)c2ccccc21 [quisinostat]
How it was run: as §1

[14] = compound: Cn1cncc1[C@@](N)(c1ccc(Cl)cc1)c1ccc2c(c1)c(-c1cccc(Cl)c1)cc(=O)n2C [tipifarnib]
How it was run: as §1

[15] = compound: NC(=O)Nc1cc(-c2cccc(F)c2)sc1C(=O)N[C@H]1CCCNC1
How it was run: as §1

[16] = compound: NC(=O)c1cnc(N[C@@H]2CCCC[C@@H]2N)nc1Nc1cccc(-n2nccn2)c1
How it was run: as §1

[17] = compound: NC1(c2ccc(-c3nc4ccn5c(=O)[nH]nc5c4cc3-c3ccccc3)cc2)CCC1
How it was run: as §1

[18] = compound: C[C@H](C1=CC=C(C=C1)C(=O)NC2=C3C=CNC3=NC=C2)N
How it was run: as §1

[19] = compound: Cc1cc(Nc2cc(CN3CCOCC3)c3nc(C)c(Cc4ccc(Cl)cc4F)n3n2)n[nH]1 [gandotinib]
How it was run: as §1

[20] = compound: Cc1cccc(CC(=O)N2CCc3c2ccc(-c2cn(C)c4ncnc(N)c24)c3F)n1
How it was run: as §1

Measured: log2 fold change

CT47B1 (UniProt P0C2W7)
inactive: [1] 0.11 | [2] 0.134 | [3] -0.031 | [4] 0.131 | [5] 0.031 | [6] -0.097 | [7] 0.176 | [8] -0.078 | [9] 0.141 | [10] 0.03 | [11] 0.013 | [12] 0.044 | [13] 0 | [14] 0.048 | [15] 0.042 | [16] 0.079 | [17] -0.111

CSNK1G1 (UniProt Q9HCP0)
inactive: [1] -0.178 | [2] 0.215 | [4] 0.001 | [5] -0.212 | [7] -0.071 | [10] -0.028 | [12] -0.083 | [16] -0.058 | [17] -0.043

CRAT (UniProt P43155)
inactive: [1] 0.076 | [2] -0.268 | [3] 0.011 | [4] -0.095 | [6] 0.011 | [7] 0.016 | [10] -0.074 | [12] -0.012 | [13] -0.023 | [15] 0.048 | [16] -0.056 | [17] -0.116

CUL9 (UniProt Q8IWT3)
inactive: [1] -0.06 | [2] -0.326 | [3] -0.024 | [18] 0.014 | [19] 0.143 | [6] -0.07 | [7] 0.255 | [20] 0.059 | [8] 0.024 | [9] -0.045 | [11] 0.128 | [13] -0.122 | [14] -0.012 | [15] 0.105 | [16] -0.022 | [17] 0.082

CRYM-AS1 (UniProt A6NIL9)
inactive: [1] -0.135 | [2] -0.107 | [3] -0.118 | [18] -0.425 | [19] 0.127 | [5] -0.032 | [6] 0.049 | [7] -0.116 | [20] 0.205 | [8] 0.168 | [9] -0.092 | [11] -0.115 | [13] -0.209 | [14] -0.244 | [15] 0.069 | [16] 0.099 | [17] -0.115

CST4 (UniProt P01036)
inactive: [1] 0.099 | [2] 0.025 | [4] 0.045 | [5] 0.693 | [7] 0.035 | [10] -0.007 | [12] 0.141 | [16] 0.038 | [17] 0.722

CYB561A3 isoform 2 (UniProt Q8NBI2)
inactive: [1] 0.032 | [2] -0.11 | [3] -0.097 | [18] -0.36 | [4] 0.083 | [19] 0.22 | [5] -0.03 | [6] 0.026 | [7] -0.03 | [20] 0.243 | [8] -0.001 | [9] -0.02 | [10] 0.053 | [11] 0.049 | [12] -0.012 | [13] -0.115 | [14] -0.013 | [15] -0.017 | [16] -0.052 | [17] -0.016

CROCCP2 (UniProt Q86T23)
inactive: [1] 0.118 | [3] 0.097 | [5] -0.141 | [6] -0.039 | [8] 0.146 | [9] -0.029 | [11] 0.063 | [13] -0.036 | [14] -0.111 | [15] 0.033 | [16] -0.118 | [17] 0.12

CSNK1A1 isoform 3 (UniProt P48729)
inactive: [4] -0.077 | [10] 0.048 | [12] -0.183

Reprinted from the results shown (five entries):
CSNK1G1 (UniProt Q9HCP0)
inactive: [1] -0.178 | [2] 0.215 | [4] 0.001 | [5] -0.212 | [7] -0.071 | [10] -0.028 | [12] -0.083 | [16] -0.058 | [17] -0.043

CRAT (UniProt P43155)
inactive: [1] 0.076 | [2] -0.268 | [3] 0.011 | [4] -0.095 | [6] 0.011 | [7] 0.016 | [10] -0.074 | [12] -0.012 | [13] -0.023 | [15] 0.048 | [16] -0.056 | [17] -0.116

CUL9 (UniProt Q8IWT3)
inactive: [1] -0.06 | [2] -0.326 | [3] -0.024 | [18] 0.014 | [19] 0.143 | [6] -0.07 | [7] 0.255 | [20] 0.059 | [8] 0.024 | [9] -0.045 | [11] 0.128 | [13] -0.122 | [14] -0.012 | [15] 0.105 | [16] -0.022 | [17] 0.082

CRYM-AS1 (UniProt A6NIL9)
inactive: [1] -0.135 | [2] -0.107 | [3] -0.118 | [18] -0.425 | [19] 0.127 | [5] -0.032 | [6] 0.049 | [7] -0.116 | [20] 0.205 | [8] 0.168 | [9] -0.092 | [11] -0.115 | [13] -0.209 | [14] -0.244 | [15] 0.069 | [16] 0.099 | [17] -0.115

CST4 (UniProt P01036)
inactive: [1] 0.099 | [2] 0.025 | [4] 0.045 | [5] 0.693 | [7] 0.035 | [10] -0.007 | [12] 0.141 | [16] 0.038 | [17] 0.722

More records:

CROT isoform 3 (UniProt Q9UKG9)
inactive: [3] 0.025 | [18] 0.016 | [19] -0.199 | [5] 0.133 | [6] -0.046 | [20] -0.122 | [8] -0.12 | [9] 0.054 | [11] 0.27 | [13] 0.051 | [14] 0 | [15] 0.008 | [17] -0.145

CTC1 (UniProt Q2NKJ3)
inactive: [2] -0.114 | [3] 0 | [18] 0.185 | [4] 0.031 | [19] 0.018 | [5] -0.073 | [6] -0.11 | [7] 0.019 | [20] 0.045 | [8] 0.385 | [9] -0.251 | [10] 0.006 | [11] -0.122 | [12] 0.045 | [13] -0.085 | [14] -0.033 | [15] 0.194 | [17] 0.077

CSRNP2 (UniProt Q9H175)
inactive: [4] 0.054 | [10] -0.23 | [12] -0.128 | [17] -0.059

CTDSP1 isoform 3 (UniProt Q9GZU7)
inactive: [2] -0.028 | [7] -0.05

CRTC3 (UniProt Q6UUV7)
inactive: [2] -0.13 | [3] 0.09 | [4] 0 | [5] 0.061 | [6] -0.012 | [7] -0.012 | [10] -0.297 | [12] -0.033 | [13] 0.005 | [15] -0.049 | [17] 0.059

CSAD isoform 3 (UniProt Q9Y600)
inactive: [2] -0.123 | [3] -0.123 | [6] 0.035 | [7] 0.046 | [13] -0.035 | [15] -0.001 | [17] -0.153

CTSF (UniProt Q9UBX1)
inactive: [18] 0.014 | [19] 0.028 | [20] 0.025 | [17] 0.268

CTSS (UniProt P25774)
inactive: [18] -0.261 | [4] 0.079 | [19] -0.04 | [5] 0.08 | [20] 0.213 | [10] 0.029 | [12] -0.006 | [17] -0.243
